Laboratory results taken from publication PMC5732150.
No constants are given. Whether binding was seen depends on the method and setting. In cells and extracts the contact can be indirect. Some entries that bind do so weakly or less than the wild type.

Sequences of proteins named here, by UniProt entry; tags and fusion partners are left off.
UniProt P60766: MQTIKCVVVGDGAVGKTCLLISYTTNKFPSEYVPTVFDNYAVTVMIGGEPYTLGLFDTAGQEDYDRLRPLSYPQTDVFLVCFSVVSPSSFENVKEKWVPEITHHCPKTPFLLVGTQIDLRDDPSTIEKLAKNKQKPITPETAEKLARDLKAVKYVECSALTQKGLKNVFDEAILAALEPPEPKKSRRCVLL
UniProt Q9WTI7: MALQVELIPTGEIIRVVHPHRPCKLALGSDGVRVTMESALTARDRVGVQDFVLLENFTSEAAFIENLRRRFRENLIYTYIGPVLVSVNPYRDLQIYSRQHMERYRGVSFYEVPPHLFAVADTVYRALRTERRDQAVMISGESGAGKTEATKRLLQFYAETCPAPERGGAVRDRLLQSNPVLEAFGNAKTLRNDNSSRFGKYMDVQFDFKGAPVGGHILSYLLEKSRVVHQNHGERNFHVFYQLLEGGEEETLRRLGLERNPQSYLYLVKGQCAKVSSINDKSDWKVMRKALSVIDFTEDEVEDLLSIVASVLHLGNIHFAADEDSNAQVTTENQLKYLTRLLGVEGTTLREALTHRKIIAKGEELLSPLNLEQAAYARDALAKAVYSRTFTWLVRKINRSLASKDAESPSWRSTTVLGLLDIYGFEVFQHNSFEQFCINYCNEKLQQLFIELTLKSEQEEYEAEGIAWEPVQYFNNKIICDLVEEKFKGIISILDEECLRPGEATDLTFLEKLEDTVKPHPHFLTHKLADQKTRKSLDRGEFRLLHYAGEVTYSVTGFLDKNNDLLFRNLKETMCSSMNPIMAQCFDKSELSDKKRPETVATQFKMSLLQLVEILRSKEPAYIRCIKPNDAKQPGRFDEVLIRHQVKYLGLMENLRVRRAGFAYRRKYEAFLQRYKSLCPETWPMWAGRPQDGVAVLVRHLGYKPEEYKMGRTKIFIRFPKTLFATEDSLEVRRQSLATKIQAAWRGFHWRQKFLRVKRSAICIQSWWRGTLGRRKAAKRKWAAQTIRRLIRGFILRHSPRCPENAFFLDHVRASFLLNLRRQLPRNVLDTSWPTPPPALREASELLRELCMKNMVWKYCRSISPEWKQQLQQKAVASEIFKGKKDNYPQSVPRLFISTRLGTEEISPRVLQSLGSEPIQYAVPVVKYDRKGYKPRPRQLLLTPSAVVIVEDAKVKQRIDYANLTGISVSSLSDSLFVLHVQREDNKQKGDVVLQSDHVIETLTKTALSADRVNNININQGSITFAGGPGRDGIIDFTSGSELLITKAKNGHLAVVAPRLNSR
UniProt Q9QUI0: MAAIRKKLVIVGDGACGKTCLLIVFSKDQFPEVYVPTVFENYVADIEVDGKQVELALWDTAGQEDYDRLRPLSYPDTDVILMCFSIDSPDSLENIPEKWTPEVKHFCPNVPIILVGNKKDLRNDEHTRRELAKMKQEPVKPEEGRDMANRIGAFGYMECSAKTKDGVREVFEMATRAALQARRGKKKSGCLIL

Target: T1, CD44 (mouse (endogenous in splenic B lymphocytes)) (UniProt P15379)
T1 sequence: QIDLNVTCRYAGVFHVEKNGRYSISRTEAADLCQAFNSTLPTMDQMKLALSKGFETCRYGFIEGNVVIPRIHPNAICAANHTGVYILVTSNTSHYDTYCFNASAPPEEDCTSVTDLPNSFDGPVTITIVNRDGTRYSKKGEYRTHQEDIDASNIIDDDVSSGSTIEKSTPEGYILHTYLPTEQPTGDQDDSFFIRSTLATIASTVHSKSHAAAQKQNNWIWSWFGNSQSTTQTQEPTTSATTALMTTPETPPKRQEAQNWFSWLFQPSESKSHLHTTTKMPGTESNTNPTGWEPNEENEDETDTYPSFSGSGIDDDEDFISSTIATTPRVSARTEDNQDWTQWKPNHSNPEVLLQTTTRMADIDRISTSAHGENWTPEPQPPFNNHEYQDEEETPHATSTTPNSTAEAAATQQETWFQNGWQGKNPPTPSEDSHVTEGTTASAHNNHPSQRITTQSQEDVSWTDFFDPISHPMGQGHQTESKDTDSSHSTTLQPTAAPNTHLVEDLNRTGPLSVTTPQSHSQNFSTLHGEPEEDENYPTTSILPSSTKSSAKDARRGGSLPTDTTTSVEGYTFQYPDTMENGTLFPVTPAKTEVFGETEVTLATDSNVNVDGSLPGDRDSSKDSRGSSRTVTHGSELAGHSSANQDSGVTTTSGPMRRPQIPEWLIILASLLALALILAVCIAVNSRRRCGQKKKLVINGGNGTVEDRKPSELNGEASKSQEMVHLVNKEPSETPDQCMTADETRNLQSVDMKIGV
Experiment: co-IP; Lysates (RIPA buffer, 1% Triton X-100) of resting, LPS plus IL-4 activated, HA-stimulated or CD44-capped mouse B lymphocytes; precipitated with α-Myo1g or NIM-R8 (α-CD44), 4 h at 4°C, protein G-agarose; Western blot; CD44 precipitates compared between WT and Myo1g-deficient cells

binding	Substance
binds	CDC42 (from UniProt P60766 1-191)
binds	Myo1c (from UniProt Q9WTI7 1-1063)
binds	RhoA (from UniProt Q9QUI0 1-193)
